Target: T1, biotinylated AFP158/HLA-A*02:01 tetramer (human, biotinylated via the BSP peptide linked to the C-terminal end of the HLA-A*02:01 extracellular domain)
T1 construct: also called AFP158 tetramer; not shown: BSP peptide (BirA biotinylation site) at the C-terminus
Assay: flow cytometry, AFP158/HLA-A*02:01 tetramer staining of CAR-transduced T cells

Binder | binding result
Anti-AFP-CD8T-41BBz-CAR (other, Chimeric antigen receptor on transduced primary human T cells: anti-AFP/MHC scFv, myc tag, CD8 TM, 4-1BB costimulatory domain, CD3zeta; also called αAFP -CD8T-41BBz CAR) QSVLTQPASVSGSPGQSITISCTGTSSDVGGYNYVSWYQQHPGKAPKLMIYDVNNRPSEVSNRFSGSKSGNTASLTISGLQAEDEADYYCSSYTTGSRAVFGGGTKLTVLGSRGGGGSGGGGSGGGGSLEMAEVQLVQSGAEVKKPGESLTISCKASGYSFPNYWITWVRQMSGGGLEWMGRIDPGDSYTTYNPSFQGHVTISIDKSTNTAYLHWNSLKASDTAMYYCARYYVSLVDIWGQGTLVTVSSEQKLISEEDLTGTTTPAPRPPTPAPTIASQPLSLRPEACRPAAGGAVHTRGLDFACDIYIWAPLAGTCGVLLLSLVITLYCKRGRKKLLYIFKQPFMRPVQTTQEEDGCSCRFPEEEEGGCELRVKFSRSADAPAYQQGQNQLYNELNLGRREEYDVLDKRRGRDPEMGGKPRRKNPQEGLYNELQKDKMAEAYSEIGMKGERRRGKGHDGLYQGLSTATKDTYDALHMQALPPR | binds
Anti-AFP-CD8T-CD30z-CAR (other, Chimeric antigen receptor on transduced primary human T cells: anti-AFP/MHC scFv, myc tag, CD8 TM, CD30 costimulatory domain, CD3zeta; also called αAFP -CD8T-CD30z CAR) QSVLTQPASVSGSPGQSITISCTGTSSDVGGYNYVSWYQQHPGKAPKLMIYDVNNRPSEVSNRFSGSKSGNTASLTISGLQAEDEADYYCSSYTTGSRAVFGGGTKLTVLGSRGGGGSGGGGSGGGGSLEMAEVQLVQSGAEVKKPGESLTISCKASGYSFPNYWITWVRQMSGGGLEWMGRIDPGDSYTTYNPSFQGHVTISIDKSTNTAYLHWNSLKASDTAMYYCARYYVSLVDIWGQGTLVTVSSEQKLISEEDLAAATGTTTPAPRPPTPAPTIASQPLSLRPEACRPAAGGAVHTRGLDFACDIYIWAPLAGTCGVLLLSLVITLYCHRRACRKRIRQKLHLCYPVQTSQPKLELVDSRPRRSSTQLRSGASVTEPVAEERGLMSQPLMETCHSVGAAYLESLPLQDASPAGGPSSPRDLPEPRVSTEHTNNKIEKIYIMKADTVIVGTVKAELPEGRGLAGPAEPELEEELEADHTPHYPEQETEPPLGSCSDVMLSVEEEGKEDPLPTAASGKRVKFSRSADAPAYQQGQNQLYNELNLGRREEYDVLDKRRGRDPEMGGKPRRKNPQEGLYNELQKDKMAEAYSEIGMKGERRRGKGHDGLYQGLSTATKDTYDALHMQALPPR | binds

Source: patent US20220265715A1 (EUREKA THERAPEUTICS, published 2022)
